# Test results taken from paper PMC11101478.
# These are yes or no findings as the source states them, for the method shown. Binding calls can cover weak binding; strength is not graded here.
# Molecular target: T1, gpJ713, C-terminal truncation of bacteriophage lambda gpJ starting from residue 713 (bacteriophage lambda) (UniProt P03749)
# T1 sequence: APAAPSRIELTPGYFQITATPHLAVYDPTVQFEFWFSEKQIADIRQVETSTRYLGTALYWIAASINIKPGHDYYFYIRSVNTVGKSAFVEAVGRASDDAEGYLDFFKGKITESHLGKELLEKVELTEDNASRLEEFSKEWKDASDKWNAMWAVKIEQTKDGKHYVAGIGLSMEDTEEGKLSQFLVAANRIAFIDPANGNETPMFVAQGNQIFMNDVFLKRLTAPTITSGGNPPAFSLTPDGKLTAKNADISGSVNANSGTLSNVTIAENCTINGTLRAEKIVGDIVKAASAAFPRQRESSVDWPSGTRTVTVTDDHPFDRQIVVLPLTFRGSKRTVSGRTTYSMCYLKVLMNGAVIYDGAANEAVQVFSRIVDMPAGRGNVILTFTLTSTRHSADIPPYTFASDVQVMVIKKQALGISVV
# Test: cryo-EM structure; His-tagged gpJ713 purified from E. coli BL21 (DE3) by nickel column and gel filtration; the host's isomerase came along; closed state, C3 symmetry, map at 2.75 Å
substance,measurement,value
peptidylprolyl isomerase protein (E. coli (endogenous in BL21 (DE3))) (enzyme),binding,binds
